Source: US11026956B2, “Cancer drug and uses” (Health Clinics Limited, priority 2013, dated 2021)
For at least one compound, name, drawing or mass did not settle the structure.

Experiments:
[1] = tested on: human metastatic melanoma cells; conditions: downstream of iron-dependent generation of cytotoxic oxidative stress; cited from earlier work
brain glioma = conditions: rats; cited from earlier work
acute myeloid leukemia = experiment: Case report: patient with acute myeloid leukemia; type: in vivo, human; conditions: 40 mg OD in lipid formulation comprising tributyrin and G43
metastatic breast cancer = experiment: Case reports: patients with metastatic breast cancer (CAT scan, symptoms, survival); type: in vivo, human; conditions: artemether 40 mg OD in lipid filled capsule comprising tributyrin and G43
Text: (§1) A patient comprising a person was diagnosed by their physician with advanced metastatic breast cancer. The metastatic breast cancer consisted of tumors, including several found in both lungs. The physician prescribed a standard set of cancer therapeutics in an attempt to reduce or maintain the tumors. […] The physician placed the patient on a paliative care regime and provided the patient with several doses of the aromatase inhibitor, letrazole. […] The patient was next administered a treatment consisting of artemether at a dose of 40 mg OD, presented in a lipid filled capsule comprising tributyrin and G43.
A patient comprising a person was diagnosed by their physician with extensive metastaic breast cancer. The patient presented with tumors in brain liver and lungs. The patient also presented with symptoms that included shortness of breath and a persistent cough. The patient informed the physician that they would not take part in a standard chemotherapy treatment protocol. The physician informed the patient that they would only live for about three months survival. The patient was instead administered artemether at a dose of 40 mg OD, presented as a lipid filled capsule comprising tributyrin and G43. As a result of the treatment, the symptoms the patient suffered from, including, shortness of breath and a persistent cough diminished over the weeks following treatment with arthemether.
as §1

SMILES	effect on human metastatic melanoma cells [1]	brain glioma growth and angiogenesis (brain glioma)	progression of the cancer (acute myeloid leukemia)	survival and health of the patient (acute myeloid leukemia)	tumor growth (CAT scan) (metastatic breast cancer; CAT scan several months after administration, single patient)	progression of the breast cancer (metastatic breast cancer; during the period of administration, single patient)	symptoms (shortness of breath, persistent cough) (metastatic breast cancer; over the weeks following treatment, tumors in brain, liver and lungs)	survival of the patient (metastatic breast cancer; prognosis about three months)
C[C@H]1[C@@H](O)O[C@@H]2O[C@@]3(C)CC[C@H]4[C@H](C)CC[C@@H]1[C@@]24OO3 [Dihydroartemisinin]	induction of NOXA-dependent mitochondrial apoptosis	–	–	–	–	–	–	–
CO[C@H]1O[C@@H]2O[C@@]3(C)CC[C@H]4[C@H](C)CC[C@@H]([C@H]1C)[C@@]24OO3 [artemether, (+)-(3-alpha,5a-beta,6-beta,8a-beta, 9-alpha,12-beta,12aR)-decahydro-10-methoxy-3,6,9-trimethyl-3,12-epoxy-12H-pyrano(4,3-j)-1,2-benzodioxepin]	–	strong inhibitory effects	slowed over time	continues to live and their health is improving	all tumor growth had stopped	did not progress	diminished	continues to survive, six months following the initial diagnosis
